This is an account of results in the supplement of paper PMC12819154, “High-throughput peptide-centric local stability assay extends protein–ligand identification to membrane proteins, tissues and bacteria” (Nature Structural & Molecular Biology, 2025).

By UniProt entry, the sequences of proteins in these tests, tags left out. Where a name states a change or a piece, a line headed by the entry shows the natural chain unless it says otherwise.
UniProt Q14651: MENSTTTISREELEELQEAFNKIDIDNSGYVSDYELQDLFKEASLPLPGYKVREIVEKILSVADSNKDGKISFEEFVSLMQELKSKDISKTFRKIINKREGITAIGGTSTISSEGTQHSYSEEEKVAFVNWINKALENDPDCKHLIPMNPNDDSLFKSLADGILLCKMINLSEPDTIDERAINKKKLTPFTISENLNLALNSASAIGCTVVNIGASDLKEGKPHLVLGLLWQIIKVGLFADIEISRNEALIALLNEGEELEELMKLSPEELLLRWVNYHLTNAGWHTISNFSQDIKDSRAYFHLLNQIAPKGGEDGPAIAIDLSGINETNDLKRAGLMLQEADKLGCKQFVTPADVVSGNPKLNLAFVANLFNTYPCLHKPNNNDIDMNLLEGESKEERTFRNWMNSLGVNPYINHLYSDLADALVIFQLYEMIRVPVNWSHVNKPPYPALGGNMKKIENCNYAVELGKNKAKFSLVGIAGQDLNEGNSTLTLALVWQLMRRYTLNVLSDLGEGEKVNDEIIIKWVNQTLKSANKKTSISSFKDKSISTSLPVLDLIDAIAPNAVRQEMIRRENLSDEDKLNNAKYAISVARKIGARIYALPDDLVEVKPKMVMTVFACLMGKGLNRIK
UniProt Q14554: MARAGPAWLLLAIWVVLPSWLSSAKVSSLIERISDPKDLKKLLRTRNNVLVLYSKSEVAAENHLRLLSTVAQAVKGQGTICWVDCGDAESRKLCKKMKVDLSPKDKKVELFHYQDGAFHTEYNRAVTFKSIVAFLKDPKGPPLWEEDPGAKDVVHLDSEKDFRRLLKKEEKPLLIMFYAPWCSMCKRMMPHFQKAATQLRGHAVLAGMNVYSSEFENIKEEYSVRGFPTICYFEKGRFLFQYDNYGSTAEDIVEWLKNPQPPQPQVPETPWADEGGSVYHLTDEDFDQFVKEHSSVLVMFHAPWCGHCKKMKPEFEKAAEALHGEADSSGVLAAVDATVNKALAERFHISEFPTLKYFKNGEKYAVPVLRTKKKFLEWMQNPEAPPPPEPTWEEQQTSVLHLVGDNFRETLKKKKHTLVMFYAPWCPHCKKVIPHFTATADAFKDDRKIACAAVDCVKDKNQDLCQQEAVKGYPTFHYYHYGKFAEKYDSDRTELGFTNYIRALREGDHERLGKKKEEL
UniProt Q14186: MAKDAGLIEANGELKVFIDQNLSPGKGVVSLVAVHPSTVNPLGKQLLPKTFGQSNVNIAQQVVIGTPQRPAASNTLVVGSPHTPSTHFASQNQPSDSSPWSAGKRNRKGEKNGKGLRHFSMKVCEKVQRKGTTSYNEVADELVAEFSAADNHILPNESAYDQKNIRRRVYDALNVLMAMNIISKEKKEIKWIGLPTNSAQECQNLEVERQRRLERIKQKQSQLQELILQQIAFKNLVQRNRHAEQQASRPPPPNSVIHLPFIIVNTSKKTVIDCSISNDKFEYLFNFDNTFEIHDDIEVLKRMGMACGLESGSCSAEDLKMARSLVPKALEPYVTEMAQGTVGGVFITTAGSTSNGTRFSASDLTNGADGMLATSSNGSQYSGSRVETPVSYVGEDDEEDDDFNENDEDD
UniProt Q13535: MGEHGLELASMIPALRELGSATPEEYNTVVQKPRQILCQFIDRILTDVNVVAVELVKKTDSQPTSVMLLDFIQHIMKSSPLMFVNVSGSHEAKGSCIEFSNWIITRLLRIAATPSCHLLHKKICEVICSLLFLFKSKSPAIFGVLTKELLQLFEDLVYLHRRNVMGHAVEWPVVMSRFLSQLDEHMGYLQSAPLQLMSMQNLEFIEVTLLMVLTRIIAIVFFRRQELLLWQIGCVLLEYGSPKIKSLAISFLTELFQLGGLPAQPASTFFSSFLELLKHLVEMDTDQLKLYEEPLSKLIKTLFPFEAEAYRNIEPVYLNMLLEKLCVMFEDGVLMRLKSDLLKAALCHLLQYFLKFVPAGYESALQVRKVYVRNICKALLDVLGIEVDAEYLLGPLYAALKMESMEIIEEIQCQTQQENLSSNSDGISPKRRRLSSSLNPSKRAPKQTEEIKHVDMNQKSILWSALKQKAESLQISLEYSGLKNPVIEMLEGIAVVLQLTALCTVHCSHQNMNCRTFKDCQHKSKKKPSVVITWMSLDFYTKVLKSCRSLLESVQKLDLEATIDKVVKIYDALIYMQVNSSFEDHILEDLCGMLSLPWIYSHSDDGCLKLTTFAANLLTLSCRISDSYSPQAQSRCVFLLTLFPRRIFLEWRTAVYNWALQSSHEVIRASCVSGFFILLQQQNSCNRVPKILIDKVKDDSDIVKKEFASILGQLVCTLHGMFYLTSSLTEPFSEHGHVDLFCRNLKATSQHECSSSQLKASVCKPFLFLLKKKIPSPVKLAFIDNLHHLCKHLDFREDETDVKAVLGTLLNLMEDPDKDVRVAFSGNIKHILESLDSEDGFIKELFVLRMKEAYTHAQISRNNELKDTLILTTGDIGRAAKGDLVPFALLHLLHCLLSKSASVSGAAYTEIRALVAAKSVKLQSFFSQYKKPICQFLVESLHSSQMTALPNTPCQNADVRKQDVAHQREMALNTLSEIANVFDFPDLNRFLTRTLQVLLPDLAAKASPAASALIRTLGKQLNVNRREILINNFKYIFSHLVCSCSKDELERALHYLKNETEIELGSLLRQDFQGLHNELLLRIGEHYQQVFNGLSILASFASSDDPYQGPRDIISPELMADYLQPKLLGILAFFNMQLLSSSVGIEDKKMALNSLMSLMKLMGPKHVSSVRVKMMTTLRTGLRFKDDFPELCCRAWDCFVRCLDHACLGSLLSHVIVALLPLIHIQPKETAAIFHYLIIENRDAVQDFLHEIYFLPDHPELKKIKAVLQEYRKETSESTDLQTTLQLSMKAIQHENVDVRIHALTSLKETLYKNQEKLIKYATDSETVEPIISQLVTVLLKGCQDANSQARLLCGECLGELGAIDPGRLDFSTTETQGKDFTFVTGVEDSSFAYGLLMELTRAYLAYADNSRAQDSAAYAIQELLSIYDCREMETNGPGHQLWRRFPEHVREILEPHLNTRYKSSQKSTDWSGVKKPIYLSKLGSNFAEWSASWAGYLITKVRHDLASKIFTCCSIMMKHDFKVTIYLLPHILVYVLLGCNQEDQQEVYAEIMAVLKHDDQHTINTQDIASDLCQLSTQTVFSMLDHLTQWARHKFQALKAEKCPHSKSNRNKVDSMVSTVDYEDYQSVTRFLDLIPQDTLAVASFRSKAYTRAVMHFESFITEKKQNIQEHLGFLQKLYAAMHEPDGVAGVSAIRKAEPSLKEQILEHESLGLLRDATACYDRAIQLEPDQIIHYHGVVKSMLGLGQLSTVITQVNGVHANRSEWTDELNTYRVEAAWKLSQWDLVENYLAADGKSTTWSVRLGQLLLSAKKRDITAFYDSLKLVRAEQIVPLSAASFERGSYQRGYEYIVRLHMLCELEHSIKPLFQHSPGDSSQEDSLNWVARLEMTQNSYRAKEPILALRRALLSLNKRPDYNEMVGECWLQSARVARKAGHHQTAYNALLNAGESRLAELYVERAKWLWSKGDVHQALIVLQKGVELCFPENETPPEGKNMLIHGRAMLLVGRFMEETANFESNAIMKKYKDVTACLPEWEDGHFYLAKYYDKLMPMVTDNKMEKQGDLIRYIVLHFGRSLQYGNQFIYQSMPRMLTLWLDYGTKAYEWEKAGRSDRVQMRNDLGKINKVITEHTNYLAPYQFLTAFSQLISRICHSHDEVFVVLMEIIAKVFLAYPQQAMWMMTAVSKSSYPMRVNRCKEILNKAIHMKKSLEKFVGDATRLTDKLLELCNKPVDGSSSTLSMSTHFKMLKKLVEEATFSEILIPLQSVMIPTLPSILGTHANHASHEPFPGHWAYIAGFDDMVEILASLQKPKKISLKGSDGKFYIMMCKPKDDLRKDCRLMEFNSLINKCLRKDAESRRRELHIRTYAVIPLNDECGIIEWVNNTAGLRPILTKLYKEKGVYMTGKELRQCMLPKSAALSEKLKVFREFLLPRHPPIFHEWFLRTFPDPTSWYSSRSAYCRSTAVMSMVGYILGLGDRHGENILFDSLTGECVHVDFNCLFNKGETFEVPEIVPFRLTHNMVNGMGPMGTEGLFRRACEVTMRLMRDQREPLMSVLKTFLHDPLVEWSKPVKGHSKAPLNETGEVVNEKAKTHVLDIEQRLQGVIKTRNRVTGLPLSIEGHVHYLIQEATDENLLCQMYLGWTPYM
UniProt Q13952: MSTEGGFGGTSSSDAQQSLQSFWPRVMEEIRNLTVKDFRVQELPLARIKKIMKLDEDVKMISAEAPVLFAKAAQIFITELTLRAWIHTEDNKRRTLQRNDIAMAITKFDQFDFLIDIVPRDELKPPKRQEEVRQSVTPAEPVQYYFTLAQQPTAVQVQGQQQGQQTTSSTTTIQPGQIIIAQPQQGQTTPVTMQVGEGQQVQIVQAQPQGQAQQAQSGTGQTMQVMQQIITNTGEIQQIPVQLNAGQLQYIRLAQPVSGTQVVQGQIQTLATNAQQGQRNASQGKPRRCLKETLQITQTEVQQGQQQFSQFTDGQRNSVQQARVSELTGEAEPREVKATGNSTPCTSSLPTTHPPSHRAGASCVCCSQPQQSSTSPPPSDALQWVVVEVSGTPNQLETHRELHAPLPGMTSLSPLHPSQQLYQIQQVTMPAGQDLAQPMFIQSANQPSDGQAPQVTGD
UniProt Q14847: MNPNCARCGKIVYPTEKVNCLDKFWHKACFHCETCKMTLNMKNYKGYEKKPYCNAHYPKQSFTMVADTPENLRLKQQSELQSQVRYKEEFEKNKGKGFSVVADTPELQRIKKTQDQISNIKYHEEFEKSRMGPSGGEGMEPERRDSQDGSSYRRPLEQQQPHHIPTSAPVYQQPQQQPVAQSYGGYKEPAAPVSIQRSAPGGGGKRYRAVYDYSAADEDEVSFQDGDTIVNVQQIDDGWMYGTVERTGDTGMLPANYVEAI
UniProt Q13395: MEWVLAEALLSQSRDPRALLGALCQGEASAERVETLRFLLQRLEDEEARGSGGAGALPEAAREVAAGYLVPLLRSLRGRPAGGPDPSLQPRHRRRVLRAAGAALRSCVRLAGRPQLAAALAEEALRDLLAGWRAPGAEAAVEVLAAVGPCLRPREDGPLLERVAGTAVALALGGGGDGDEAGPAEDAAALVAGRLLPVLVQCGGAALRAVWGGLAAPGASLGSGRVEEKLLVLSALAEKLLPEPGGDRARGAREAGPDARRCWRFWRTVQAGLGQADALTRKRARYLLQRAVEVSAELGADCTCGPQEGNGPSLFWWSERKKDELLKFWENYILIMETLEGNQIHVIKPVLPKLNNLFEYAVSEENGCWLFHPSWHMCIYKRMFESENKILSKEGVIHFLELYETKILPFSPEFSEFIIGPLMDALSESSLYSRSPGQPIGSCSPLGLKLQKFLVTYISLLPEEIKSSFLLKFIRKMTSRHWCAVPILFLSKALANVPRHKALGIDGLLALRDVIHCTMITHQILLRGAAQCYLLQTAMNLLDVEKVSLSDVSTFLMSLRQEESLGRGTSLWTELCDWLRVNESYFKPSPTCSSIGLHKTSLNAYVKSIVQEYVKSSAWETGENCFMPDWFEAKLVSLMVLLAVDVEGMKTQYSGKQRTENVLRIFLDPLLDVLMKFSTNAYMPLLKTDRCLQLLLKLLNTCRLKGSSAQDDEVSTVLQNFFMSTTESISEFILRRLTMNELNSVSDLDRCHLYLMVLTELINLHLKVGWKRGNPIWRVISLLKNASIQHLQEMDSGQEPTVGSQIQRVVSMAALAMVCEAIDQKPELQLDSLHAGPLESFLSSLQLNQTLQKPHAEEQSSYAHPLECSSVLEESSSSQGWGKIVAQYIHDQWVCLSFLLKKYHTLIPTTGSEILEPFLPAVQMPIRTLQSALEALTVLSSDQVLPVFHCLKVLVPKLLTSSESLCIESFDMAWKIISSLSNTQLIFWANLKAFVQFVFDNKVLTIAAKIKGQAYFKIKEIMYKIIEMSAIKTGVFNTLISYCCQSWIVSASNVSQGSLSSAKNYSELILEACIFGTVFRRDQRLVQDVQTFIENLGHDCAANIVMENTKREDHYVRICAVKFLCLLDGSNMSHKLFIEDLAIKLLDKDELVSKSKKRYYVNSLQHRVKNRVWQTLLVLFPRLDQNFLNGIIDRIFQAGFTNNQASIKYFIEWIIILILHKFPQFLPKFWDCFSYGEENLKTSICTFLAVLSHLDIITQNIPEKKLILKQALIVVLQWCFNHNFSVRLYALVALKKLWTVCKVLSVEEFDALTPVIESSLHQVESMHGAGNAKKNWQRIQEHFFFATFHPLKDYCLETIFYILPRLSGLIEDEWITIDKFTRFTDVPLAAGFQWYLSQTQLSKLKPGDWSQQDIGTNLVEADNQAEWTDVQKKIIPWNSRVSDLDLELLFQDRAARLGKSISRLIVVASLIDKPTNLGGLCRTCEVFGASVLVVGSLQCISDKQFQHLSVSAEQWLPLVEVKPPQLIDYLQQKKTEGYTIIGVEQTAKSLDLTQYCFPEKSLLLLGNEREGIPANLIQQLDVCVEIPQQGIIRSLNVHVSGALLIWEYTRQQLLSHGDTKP

Some of the results follow. Most values lie at the level of the controls, where differences are scatter.

Compound in this test: Cc1nc(Nc2ncc(C(=O)Nc3c(C)cccc3Cl)s2)cc(N2CCN(CCO)CC2)n1 [dasatinib]
The experiment in a line: log2 fold change of tryptic peptide abundance, ligand vs vehicle (limited proteolysis) (log2 ratio); higher = more trypsin-susceptible (destabilized). The conditions noted are these: ligand concentration: 5 uM; sample: K562 cleared lysate.
“ENDOG (peptide sequence: AGSLKAITAGSK, peptide start residue: 286) (UniProt Q14249)”: the log2 fold change stood at 0.534.

Regarding “HDAC1 (peptide sequence: KEVTEEEKTK, peptide start residue: 457) (UniProt Q13547)”, the log2 fold change is -0.445.

Take “PLS1 (peptide sequence: EASLPLPGYK, peptide start residue: 42) (UniProt Q14651)”: the log2 fold change was 0.341.

As for “PSMD2 (peptide sequence: SETELKDTYAR, peptide start residue: 546) (UniProt Q13200)”, the log2 fold change is -1.21.

Take “URB2 (peptide sequence: AGPEGIEPR, peptide start residue: 859) (UniProt Q14146)”: the log2 fold change was found to be 0.165.

For the target “PDIA5 (peptide sequence: FHISEFPTLK, peptide start residue: 347) (UniProt Q14554)”, the log2 fold change turned out to be 0.0664.

“DCTN1 (peptide sequence: QMEVAQANR, peptide start residue: 575) (UniProt Q14203)”: the log2 fold change is -0.224.

Take “GPS1 (peptide sequence: RGHDDLGDHYLDCGDLSNALK, peptide start residue: 163) (UniProt Q13098)”: the log2 fold change is -0.193.

Consider “TFDP1 (peptide sequence: DAGLIEANGELK, peptide start residue: 4) (UniProt Q14186)”, for which the log2 fold change was -0.0643.

With “UniProt Q14964 (peptide sequence: LQLWDTAGQER, peptide start residue: 64)”, the log2 fold change was found to be 0.0549.

“PLD1 (peptide sequence: PHADTGSIR, peptide start residue: 620) (UniProt Q13393)”: the log2 fold change worked out at 0.126.

In the case of “ATR (peptide sequence: ETAAIFHYLIIENR, peptide start residue: 1229) (UniProt Q13535)”, the log2 fold change came to 0.498.

On to “NAB1 (peptide sequence: QPHHFVVDGELSR, peptide start residue: 435) (UniProt Q13506)”, for which the log2 fold change came out at 0.142.

For “UniProt Q15004 (peptide sequence: ADSVPGTYR, peptide start residue: 6)”, the log2 fold change turned out to be 0.0904.

Regarding “NFYC (peptide sequence: VSELTGEAEPR, peptide start residue: 324) (UniProt Q13952)”, the log2 fold change was -0.162.

For “NCAPH (peptide sequence: EAALAEVADEK, peptide start residue: 675) (UniProt Q15003)”, the log2 fold change was 0.131.

“UniProt Q13416 (peptide sequence: AQLTEFR, peptide start residue: 534)”: the log2 fold change worked out at 0.164.

On to “FRG1 (peptide sequence: QCEINYVK, peptide start residue: 204) (UniProt Q14331)”, for which the log2 fold change was -0.117.

Consider “GAB1 (peptide sequence: GDKQVEYLDLDLDSGK, peptide start residue: 621) (UniProt Q13480)”, for which the log2 fold change was -0.564.

For the target “FHL3 (peptide sequence: CSSCKRPIVGLGGGK, peptide start residue: 221) (UniProt Q13643)”, the log2 fold change was -0.349.

Turning to “GPS2 (peptide sequence: VLHEEEK, peptide start residue: 93) (UniProt Q13227)”, the log2 fold change came out at 0.838.

With “LASP1 (peptide sequence: DSQDGSSYR, peptide start residue: 145) (UniProt Q14847)”, the log2 fold change is -0.0837.

With “PUM1 (peptide sequence: SMDELNHDFQALALEGR, peptide start residue: 124) (UniProt Q14671)”, the log2 fold change was 0.0817.

Turning to “UniProt Q14586 (peptide sequence: SYLTTHQR, peptide start residue: 645)”, the log2 fold change was -0.681.

Regarding “TARBP1 (peptide sequence: KIIPWNSR, peptide start residue: 1433) (UniProt Q13395)”, the log2 fold change was -0.394.

Regarding “ASAH1 (peptide sequence: ESLDVYELDAK, peptide start residue: 300) (UniProt Q13510)”, the log2 fold change was -0.188.

“UniProt Q14562 (peptide sequence: TMLDEDDVKVAVDVLK, peptide start residue: 132)”: the log2 fold change was -0.621.
